Assay results from publication PMC7791120.

Tests used:
[1] = biological target: T1, Tribbles homolog 2 (TRIB2), endogenous (human (endogenous in Bel-7402)) (UniProt Q92519); assay: proximity ligation; Duolink in situ PLA on cells fixed in 4% paraformaldehyde, primary antibodies to the two proteins; Bel-7402 and SMMC-7721 named for PCBP2 with PSMB5
T1 sequence: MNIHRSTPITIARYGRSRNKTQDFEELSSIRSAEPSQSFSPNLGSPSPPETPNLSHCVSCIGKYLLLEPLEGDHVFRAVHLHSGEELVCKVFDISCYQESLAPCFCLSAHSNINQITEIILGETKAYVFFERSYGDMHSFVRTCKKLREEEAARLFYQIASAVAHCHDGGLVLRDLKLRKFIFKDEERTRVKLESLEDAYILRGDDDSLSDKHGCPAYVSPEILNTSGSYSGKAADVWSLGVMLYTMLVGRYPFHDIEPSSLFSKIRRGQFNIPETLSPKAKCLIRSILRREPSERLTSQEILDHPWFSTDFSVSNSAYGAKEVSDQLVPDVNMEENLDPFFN

[2] = biological target: T2, purified TRIB2 protein (ab186094, Abcam) (UniProt Q92519); assay: co-IP; in vitro co-IP: 1 µg purified protein held by 5 µg antibody on protein A/G magnetic beads, then 1 µg of the other purified protein at 4 °C overnight in 400 µl binding buffer (25 mM Tris-HCl pH 7.2, 150 mM NaCl, 5 mM MgCl2, 1% NP-40, 20 mM imidazole); immunoblot; reciprocal; both purified
T2 sequence: T1 sequence

TRIB2-FLAG (WT-TRIB2) = biological target: T3, TRIB2-FLAG (WT-TRIB2) (UniProt Q92519); assay: co-IP; conventional co-IP of exogenous TRIB2 and PCBP2 constructs from HEK-293T cells, reciprocal, immunoblot
T3 sequence: T1 sequence

Row | Substance | binding (TRIB2-FLAG (WT-TRIB2)) | also measured
1 | E3 βTrCP, endogenous |  | binding [1]: binds
2 | purified GSK3 protein (ab60863, Abcam) |  | binding [2]: no binding (tested: 1 µg of each protein in 400 µl)
3 | truncated PCBP2 PΔ1 (domain or fragment) | binds | 
4 | truncated PCBP2 PΔ2 (domain or fragment) | binds | 
5 | truncated PCBP2 PΔ3 (domain or fragment) | binds | 

More lines, main results first:

Row | binding (TRIB2-FLAG (WT-TRIB2)) | Substance | also measured
6 | binds | truncated PCBP2 PΔ4 (domain or fragment) | 
7 | binds | truncated PCBP2 PΔ5 (domain or fragment) | 
8 | no binding | truncated PCBP2 PΔ6 (domain or fragment) | 

These are yes or no findings as the source states them, for the method shown. In cells and extracts the contact can be indirect. For some assays here: Binding calls can cover weak binding; strength is not graded here. For some assays here: Where a sequence is shown, tags or fusion partners need not be part of it.
